Here are results for one molecule from paper PMC4598080.

This test has as its target Rpl4.N104 fused to the C-terminal Gal4 DNA-binding domain (S. cerevisiae). Nature of the test: two-hybrid; Rpl4a variants fused to G4BD (bait) and Acl4 fused to G4AD (prey) in reporter strain PJ69-4A; growth on SC-His-Leu-Trp (HIS3) and SC-Ade-Leu-Trp (ADE2) plates, 3 d at 30°C.

These are yes or no findings as the source states them, for the method shown. Tags and fused reporters may be left off the sequences shown.

B1: full-length Acl4 fused to the C-terminal Gal4 activation domain (protein, UniProt Q03771 1-387)
chain: MSELEATIRQAKEALAENNAKKALKILKPFKSSLKKENANNVILNEVFADAYLDNGQVEKAYPILARACELDPEGQVGGPDKFFTMGQIMGGQDGVSIITRGIMNISNTGGEMLTNVQVEKIVGGLLSVIEIWMTDLCMEPNAEEQCEELIQKAMELTEGKSPETWSTLGSIKISQQKFGEAYEAFSQAWNFFELKKQEIGSGINENGDTTQKAGLQSEYVDLLQPLLSLTKMCLEVGAYEVALKVIAAVRDIDEDNIEGYYLEGFTYYLMSKLEIFKLNNPEVSLRPENIYEFNQLIQEVPLDLSHEPISQLIYDSRLALSFALQAGVNADSKDEIVQELLGGANALLQEIGGPLDPSELTQIKKGDLVNENEDLEELDIEEEYSD
Take B1: the binding entry is given as “no binding”.
